Test results reported in patent US20210308065A1, “REMOTE MODULATION OF BICONTINUOUS NANOSPHERES FOR CONTROLLED DELIVERY APPLICATIONS” (Northwestern University, priority 2020, published 2021).

System: RAW 264.7 cells
Experiment: Subcellular localization and retention of free or BCN-encapsulated FITC-BSA (confocal microscopy)
Type: cell-based, murine

FITC-BSA: fluorescein-tagged bovine serum albumin
Integrated density of fluorescent signal from cells (4 h time point): higher at the early 4 h time point compared to FITC-BSA BCNs | Integrated density of fluorescent signal from cells (48 h): significantly lower than the FITC-BSA BCN signal at 48 h | Intracellular fluorescence intensity of FITC-BSA punctae over time (RAW 264.7 cells, after 4-h incubation, confocal): decreased in intensity over the course of 48 h
